PubChem BioAssay AID602196, INSERM | 2012
Shown is one part, drawn at random, of about 23,000 deposited reagents. 455 of all reagents (2%) count as active. 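Active includes both protection and sensitisation; some change values fall well beyond the stated -50 to +50 range.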 Further read-outs or replicates are left out here. Reagent sequences are not shown. Not given: the amount of reagent.

Aim: 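Modifiers of cisplatin sensitivity in A549 cells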
System: human A549 lung cancer cells
Reagents: siRNA pair against human genes
Duration: 48 h transfection before cisplatin; time from cisplatin to read-out not stated
Conditions: cisplatin at a dose killing half of control-siRNA cells; exact dose and duration not given
Detection: 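Cisplatin cell death as a shift from the 50% death seen with control siRNA; siRNAs toxic or growth-blocking alone scored 0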
Direction: two-siRNA summed score (-2 to +2): higher = both siRNAs protect from cisplatin killing; -2 means both sensitise; mean protection from cisplatin (shift in death): higher = protection from cisplatin killing
Hit rule: 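siRNAs harmful alone (LDH or WST-1) get 0; others get +1 for less and -1 for more cisplatin killing; genes are active when the two siRNAs give the same sign, summing to ±2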
Calls: active = both siRNAs shift cisplatin killing the same way; inactive = no consistent shift, or siRNA harmful alone

Against GON7 the deposit lists two-siRNA summed score (-2 to +2) = 0; mean protection from cisplatin (shift in death) (%) = -3.2; inactive. Against EID2B, the entry reads two-siRNA summed score (-2 to +2) = 0; mean protection from cisplatin (shift in death) (%) = 1.6; inactive. After knock-down of OR9Q1, the screen gave two-siRNA summed score (-2 to +2) = 0; mean protection from cisplatin (shift in death) (%) = 4.1; inactive. Silencing of ZCCHC4 came out at: two-siRNA summed score (-2 to +2) = 0; mean protection from cisplatin (shift in death) (%) = 0.2; inactive. For LOC401491, the entry reads two-siRNA summed score (-2 to +2) = 0; mean protection from cisplatin (shift in death) (%) = 13.4; inactive. After knock-down of LOC388180, the screen gave two-siRNA summed score (-2 to +2) = 0; mean protection from cisplatin (shift in death) (%) = 2.7; inactive.

Against C1orf54 the deposit lists two-siRNA summed score (-2 to +2) = 1; mean protection from cisplatin (shift in death) (%) = 3.7; inactive. For LOC388439, the entry reads two-siRNA summed score (-2 to +2) = 0; mean protection from cisplatin (shift in death) (%) = 14.4; inactive. Silencing of ZNF322P1 resulted in: two-siRNA summed score (-2 to +2) = 0; mean protection from cisplatin (shift in death) (%) = 14.2; inactive. MS4A4A scored two-siRNA summed score (-2 to +2) = -1; mean protection from cisplatin (shift in death) (%) = -24.5; inactive. For SPCS2P1, the entry reads two-siRNA summed score (-2 to +2) = 1; mean protection from cisplatin (shift in death) (%) = 6.4; inactive. IFT56 gave two-siRNA summed score (-2 to +2) = 0; mean protection from cisplatin (shift in death) (%) = -0.6; inactive.

Records above whose gene name starts with Z or z (2):
ZCCHC4 | two-siRNA summed score (-2 to +2): 0; mean protection from cisplatin (shift in death) (%): 0.2; call: inactive
ZNF322P1 | two-siRNA summed score (-2 to +2): 0; mean protection from cisplatin (shift in death) (%): 14.2; call: inactive
